The values that follow come from publication PMC12057046, “Elucidation of short linear motif-based interactions of the MIT and rhodanese domains of the ubiquitin-specific protease 8” (Biology Direct, 2025).

Amino acid sequences for entries named in this document (tags omitted). A change or cut given only in a name is not applied to a line headed by its entry.
UniProt Q3V6T2: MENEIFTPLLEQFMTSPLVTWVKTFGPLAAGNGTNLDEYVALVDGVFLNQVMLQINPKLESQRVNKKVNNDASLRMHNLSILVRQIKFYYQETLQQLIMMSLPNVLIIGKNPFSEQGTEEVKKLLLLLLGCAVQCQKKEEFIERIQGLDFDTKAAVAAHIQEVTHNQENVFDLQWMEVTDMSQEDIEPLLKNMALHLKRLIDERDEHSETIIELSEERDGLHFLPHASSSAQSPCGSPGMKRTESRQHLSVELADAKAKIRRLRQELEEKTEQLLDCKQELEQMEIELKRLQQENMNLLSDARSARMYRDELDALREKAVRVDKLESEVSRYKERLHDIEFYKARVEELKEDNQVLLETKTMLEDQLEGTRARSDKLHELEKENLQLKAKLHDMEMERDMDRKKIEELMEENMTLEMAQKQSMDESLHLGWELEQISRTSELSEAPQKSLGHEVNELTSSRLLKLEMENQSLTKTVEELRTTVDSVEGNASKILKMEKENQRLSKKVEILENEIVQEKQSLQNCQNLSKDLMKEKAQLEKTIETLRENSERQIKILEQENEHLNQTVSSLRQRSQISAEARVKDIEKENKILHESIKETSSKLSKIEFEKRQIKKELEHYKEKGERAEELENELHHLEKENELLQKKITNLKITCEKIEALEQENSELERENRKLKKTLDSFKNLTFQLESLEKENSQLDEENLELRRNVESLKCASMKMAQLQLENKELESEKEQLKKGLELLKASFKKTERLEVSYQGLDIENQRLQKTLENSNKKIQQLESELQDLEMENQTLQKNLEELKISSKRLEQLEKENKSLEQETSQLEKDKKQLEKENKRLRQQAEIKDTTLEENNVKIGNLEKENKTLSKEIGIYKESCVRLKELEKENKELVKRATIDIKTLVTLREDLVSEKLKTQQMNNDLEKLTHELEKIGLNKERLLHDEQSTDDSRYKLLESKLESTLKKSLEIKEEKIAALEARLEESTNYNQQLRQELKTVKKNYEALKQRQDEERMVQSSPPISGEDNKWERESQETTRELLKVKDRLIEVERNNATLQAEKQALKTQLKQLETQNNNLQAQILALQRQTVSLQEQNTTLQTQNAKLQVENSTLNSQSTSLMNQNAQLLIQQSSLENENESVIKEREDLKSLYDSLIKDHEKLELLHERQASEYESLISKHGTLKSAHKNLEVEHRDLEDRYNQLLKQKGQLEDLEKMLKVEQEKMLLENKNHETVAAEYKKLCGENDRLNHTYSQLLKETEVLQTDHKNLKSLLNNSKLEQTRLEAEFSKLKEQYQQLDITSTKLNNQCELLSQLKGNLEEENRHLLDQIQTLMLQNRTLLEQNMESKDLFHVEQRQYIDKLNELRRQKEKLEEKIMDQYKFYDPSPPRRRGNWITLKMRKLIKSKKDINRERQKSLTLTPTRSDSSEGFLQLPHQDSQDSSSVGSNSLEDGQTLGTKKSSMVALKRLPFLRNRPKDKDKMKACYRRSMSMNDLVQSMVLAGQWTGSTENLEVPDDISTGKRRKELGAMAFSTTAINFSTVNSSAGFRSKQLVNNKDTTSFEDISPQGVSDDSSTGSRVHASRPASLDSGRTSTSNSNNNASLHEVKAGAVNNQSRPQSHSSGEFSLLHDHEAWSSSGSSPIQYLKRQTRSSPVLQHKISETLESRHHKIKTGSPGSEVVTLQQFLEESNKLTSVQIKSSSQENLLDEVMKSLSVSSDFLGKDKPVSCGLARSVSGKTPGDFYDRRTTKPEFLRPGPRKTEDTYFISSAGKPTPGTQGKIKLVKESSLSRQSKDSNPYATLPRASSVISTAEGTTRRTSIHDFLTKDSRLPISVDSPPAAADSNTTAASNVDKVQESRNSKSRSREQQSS
UniProt P55347: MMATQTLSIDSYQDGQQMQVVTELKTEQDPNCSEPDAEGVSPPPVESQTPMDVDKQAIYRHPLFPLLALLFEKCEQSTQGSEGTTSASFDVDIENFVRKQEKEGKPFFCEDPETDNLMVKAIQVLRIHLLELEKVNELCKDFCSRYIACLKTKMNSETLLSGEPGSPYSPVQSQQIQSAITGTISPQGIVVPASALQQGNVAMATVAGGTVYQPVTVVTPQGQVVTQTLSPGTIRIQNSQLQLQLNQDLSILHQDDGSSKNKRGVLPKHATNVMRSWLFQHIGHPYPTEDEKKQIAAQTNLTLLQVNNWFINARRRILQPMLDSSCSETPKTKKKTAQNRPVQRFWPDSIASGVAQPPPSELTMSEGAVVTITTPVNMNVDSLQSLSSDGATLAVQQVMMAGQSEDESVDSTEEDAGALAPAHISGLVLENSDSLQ

Sequences and labels used below:
T1: GST-tagged USP8 MIT domain (1-142) (human) (UniProt P40818)
T1 sequence: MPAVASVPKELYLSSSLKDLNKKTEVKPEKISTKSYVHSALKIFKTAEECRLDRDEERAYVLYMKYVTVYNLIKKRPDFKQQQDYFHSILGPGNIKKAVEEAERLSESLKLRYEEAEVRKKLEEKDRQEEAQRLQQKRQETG

Results are given in words; binding and its absence hold for the method and conditions named. In cells and extracts the contact can be indirect. These calls come from enrichment with a bait or labelling near it, and not all partners need be listed. Where a sequence is shown, tags or fusion partners need not be part of it.

The target in this experiment is T1, GST-tagged USP8 MIT domain (1-142) (human). The experiment in a line: proteomic peptide-phage display (ProP-PD) selection; 10 µg GST-tagged bait immobilised on MaxiSorp plate; M13 phage library of the human disorderome pre-cleared on GST; four rounds, PBS, 2 h at 4 °C; enriched pools read by NGS; only the target purified.
As to SQKELESYMMRAQQLL (peptide, UniProt Q8WXH0 853-868) [SYNE2 853-868 peptide, displayed on M13 phage], the binding entry is “binds”.

Turning to SEVSDIESRIAALRAA [Melanophilin 481-496 peptide, displayed on M13 phage], the binding result was “binds”.

Turning to EVEHRDLEDRYNQLLK (peptide, UniProt Q3V6T2 1192-1207) [Girdin 1192-1207 peptide, displayed on M13 phage], the binding result was “binds”.

With QAIYRHPLFPLLALLF (peptide, UniProt P55347 56-71) [PKNOX1 56-71 peptide, displayed on M13 phage], the binding result is recorded as “binds”.

For the molecule MDDDYEAYHSLFLSLL [EFCAB12 1-16 peptide, displayed on M13 phage], the binding entry was “binds”.

Turning to YVDLDAFLLEHGLPPS [DBP 116-131 peptide, displayed on M13 phage], the binding result is recorded as “binds”.
